Data on one substance can be found in paper PMC9355941.

By UniProt entry, the sequences of proteins in these tests, tags left out.
UniProt O94972: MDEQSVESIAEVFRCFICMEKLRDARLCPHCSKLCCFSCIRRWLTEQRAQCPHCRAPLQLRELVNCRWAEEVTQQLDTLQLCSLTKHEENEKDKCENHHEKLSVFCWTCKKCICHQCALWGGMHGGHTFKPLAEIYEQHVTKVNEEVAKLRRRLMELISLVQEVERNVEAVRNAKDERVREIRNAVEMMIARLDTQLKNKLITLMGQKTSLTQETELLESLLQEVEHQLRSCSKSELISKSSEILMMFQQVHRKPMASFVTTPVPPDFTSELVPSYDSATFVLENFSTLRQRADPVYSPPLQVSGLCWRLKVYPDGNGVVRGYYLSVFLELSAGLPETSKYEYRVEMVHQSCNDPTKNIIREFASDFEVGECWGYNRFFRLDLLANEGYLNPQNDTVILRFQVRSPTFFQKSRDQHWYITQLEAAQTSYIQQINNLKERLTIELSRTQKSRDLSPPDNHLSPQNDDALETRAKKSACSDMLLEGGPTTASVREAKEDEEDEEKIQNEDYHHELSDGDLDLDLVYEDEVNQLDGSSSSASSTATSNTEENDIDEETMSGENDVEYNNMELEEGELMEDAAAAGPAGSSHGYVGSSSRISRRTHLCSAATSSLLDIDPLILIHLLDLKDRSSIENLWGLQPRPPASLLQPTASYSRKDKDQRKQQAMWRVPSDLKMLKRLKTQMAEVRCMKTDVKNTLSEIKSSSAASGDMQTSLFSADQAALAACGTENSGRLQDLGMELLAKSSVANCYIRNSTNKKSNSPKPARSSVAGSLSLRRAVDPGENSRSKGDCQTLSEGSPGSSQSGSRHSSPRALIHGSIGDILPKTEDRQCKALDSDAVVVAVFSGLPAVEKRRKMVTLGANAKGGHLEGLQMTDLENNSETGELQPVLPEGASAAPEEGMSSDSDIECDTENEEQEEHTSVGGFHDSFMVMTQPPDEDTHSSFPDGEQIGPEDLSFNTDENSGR

The target in this assay is T1, PDZ-binding kinase (PBK), endogenous (human (endogenous in UWB1.289 and SKOV3)) (UniProt Q96KB5).
T1 sequence: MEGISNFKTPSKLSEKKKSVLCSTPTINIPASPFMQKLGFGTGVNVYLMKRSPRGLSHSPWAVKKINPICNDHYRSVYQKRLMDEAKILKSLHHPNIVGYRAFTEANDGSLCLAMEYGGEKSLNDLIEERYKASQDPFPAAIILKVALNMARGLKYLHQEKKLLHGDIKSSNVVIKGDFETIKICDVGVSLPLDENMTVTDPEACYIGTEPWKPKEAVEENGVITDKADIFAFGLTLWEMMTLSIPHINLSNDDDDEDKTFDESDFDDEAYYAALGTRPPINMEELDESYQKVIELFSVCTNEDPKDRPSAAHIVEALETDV
Briefly: affinity purification with mass spectrometry; UWB1.289 cells with or without olaparib (2 µM, 24 h); lysate immunoprecipitated with anti-PBK antibody or rabbit IgG; SDS-PAGE, LC-MS/MS.

Results are given in words; binding and its absence hold for the method and conditions named. In cells and extracts the contact can be indirect. A yes stands for co-enrichment or nearness to the bait. Other partners may have been found.

As for “tripartite motif containing 37 (TRIM37), endogenous (from UniProt O94972 1-964)”, the binding entry is listed as “binds”.
